These are yes or no findings as the source states them, for the method shown. For some assays here: Sequences can lack the tags named with a protein.
T1: Fc-tagged human PTPδ Ig1–3 (MeA^−) (human) (UniProt P23468)
T1 sequence: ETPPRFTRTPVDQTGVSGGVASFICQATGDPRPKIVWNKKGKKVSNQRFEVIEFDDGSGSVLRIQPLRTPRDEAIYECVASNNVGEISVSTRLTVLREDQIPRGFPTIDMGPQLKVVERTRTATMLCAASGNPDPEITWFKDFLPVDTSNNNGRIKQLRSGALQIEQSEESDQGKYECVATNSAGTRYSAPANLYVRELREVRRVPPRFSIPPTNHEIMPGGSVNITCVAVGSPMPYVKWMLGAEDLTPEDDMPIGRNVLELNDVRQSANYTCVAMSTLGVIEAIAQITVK


Columns and labels:
[1] = target: human PTPδ Ig1–3 (MeA^−) (human) (UniProt P23468); assay: crystal structure; SALM5 LRR-Ig in complex with PTPδ Ig1–3 (MeA^−), Endo H trimmed; 3.73 Å; 0.76 M potassium sodium tartrate, 0.1 M MES pH 6.0; molecular replacement; both purified
[2] = target: T1, Fc-tagged human PTPδ Ig1–3 (MeA^−) (human); assay: pull-down; SALM5 LRR-Ig mixed with PTPδ Ig1–3 (MeA^−)-Fc at molar ratio 1.5:1, captured on Protein G Sepharose, room temperature 2 h, PBS washes, SDS-PAGE with Coomassie staining; both purified
[3] = target: T1, Fc-tagged human PTPδ Ig1–3 (MeA^−) (human); assay: SPR; Biacore T200, 25 °C; Fc-tagged PTPδ Ig1–3 (MeA^−) amine-coupled to CM5 (about 500 RU); SALM5 LRR-Ig analytes 23.43-1500 nM; 10 mM HEPES pH 7.4, 150 mM NaCl, 3 mM EDTA, 0.05% P20; 1:1 Langmuir model; both purified

Binder	binding [1]	binding [2]	binding [3]
human PTPδ Ig1–3 (MeA^−) (domain or fragment, UniProt P23468 21-320, looked up, Glycans trimmed with Endo H only for crystallization; also called MeA^−/MeB^+; source: BacMam baculovirus-transduced HEK293 GnTI- cells, secreted, purified (Ni-NTA, gel filtration); not shown: His7, C-terminal, kept) ETPPRFTRTPVDQTGVSGGVASFICQATGDPRPKIVWNKKGKKVSNQRFEVIEFDDGSGSVLRIQPLRTPRDEAIYECVASNNVGEISVSTRLTVLREDQIPRGFPTIDMGPQLKVVERTRTATMLCAASGNPDPEITWFKDFLPVDTSNNNGRIKQLRSGALQIEQSEESDQGKYECVATNSAGTRYSAPANLYVRELREVRRVPPRFSIPPTNHEIMPGGSVNITCVAVGSPMPYVKWMLGAEDLTPEDDMPIGRNVLELNDVRQSANYTCVAMSTLGVIEAIAQITVK	no binding		
human SALM5 LRR-Ig E365N (domain or fragment, UniProt Q96NI6 18-374, introduced N-linked glycan wedge GlcNAc2Man5 (confirmed by mass spectrometry)) QICPKRCVCQILSPNLATLCAKKGLLFVPPNIDRRTVELRLADNFVTNIKRKDFANMTSLVDLTLSRNTISFITPHAFADLRNLRALHLNSNRLTKITNDMFSGLSNLHHLILNNNQLTLISSTAFDDVFALEELDLSYNNLETIPWDAVEKMVSLHTLSLDHNMIDNIPKGTFSHLHKMTRLDVTSNKLQKLPPDPLFQRAQVLATSGIISPSTFALSFGGNPLHCNCELLWLRRLSREDDLETCASPPLLTGRYFWSIPEEEFLCEPPLITRHTHEMRVLEGQRATLRCKARGDPEPAIHWISPEGKLISNATRSLVYDNGTLDILITTVKDTGAFTCIASNPAGNATQIVDLHI		no binding	no binding (tested: 1500 nM (highest concentration injected))
human SALM5 LRR-Ig K309N/R311T (domain or fragment, UniProt Q96NI6 18-374, introduced N-linked glycan wedge GlcNAc2Man5 (confirmed by mass spectrometry)) QICPKRCVCQILSPNLATLCAKKGLLFVPPNIDRRTVELRLADNFVTNIKRKDFANMTSLVDLTLSRNTISFITPHAFADLRNLRALHLNSNRLTKITNDMFSGLSNLHHLILNNNQLTLISSTAFDDVFALEELDLSYNNLETIPWDAVEKMVSLHTLSLDHNMIDNIPKGTFSHLHKMTRLDVTSNKLQKLPPDPLFQRAQVLATSGIISPSTFALSFGGNPLHCNCELLWLRRLSREDDLETCASPPLLTGRYFWSIPEEEFLCEPPLITRHTHEMRVLEGQRATLRCNATGDPEPAIHWISPEGKLISNATRSLVYDNGTLDILITTVKDTGAFTCIASNPAGEATQIVDLHI		no binding	no binding (tested: 1500 nM (highest concentration injected))
